The values that follow come from article doi:10.1101/2020.11.12.379222.

Chains of the proteins cited; added tags and fusions are not shown. Lines headed by an entry give the natural chain unless they say otherwise; changes in a name come on top. A line that says so, or that is headed by a name, gives the form on record, which may keep a tag or linker. Residues count along the entry.
SHANK3 SPN-ARR WT-mRFP (Q9JLU4, residues 1-348): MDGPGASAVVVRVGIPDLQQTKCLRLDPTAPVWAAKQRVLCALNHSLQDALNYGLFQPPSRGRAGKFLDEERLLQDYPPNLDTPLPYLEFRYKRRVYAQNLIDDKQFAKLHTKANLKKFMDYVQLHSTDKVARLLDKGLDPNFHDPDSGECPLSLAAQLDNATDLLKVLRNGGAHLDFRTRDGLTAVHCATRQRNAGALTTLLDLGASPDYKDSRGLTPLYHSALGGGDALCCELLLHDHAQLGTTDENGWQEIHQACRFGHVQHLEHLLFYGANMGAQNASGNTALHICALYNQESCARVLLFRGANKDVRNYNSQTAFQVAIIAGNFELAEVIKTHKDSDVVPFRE
GFP SHANK3 SPN domain, wild type (Q9JLU4, residues 1-92): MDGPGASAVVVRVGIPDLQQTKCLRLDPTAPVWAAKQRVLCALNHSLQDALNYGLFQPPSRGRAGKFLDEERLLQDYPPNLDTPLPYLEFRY
SHANK3 SPN-ARR N52R-mRFP (Q9JLU4, form named): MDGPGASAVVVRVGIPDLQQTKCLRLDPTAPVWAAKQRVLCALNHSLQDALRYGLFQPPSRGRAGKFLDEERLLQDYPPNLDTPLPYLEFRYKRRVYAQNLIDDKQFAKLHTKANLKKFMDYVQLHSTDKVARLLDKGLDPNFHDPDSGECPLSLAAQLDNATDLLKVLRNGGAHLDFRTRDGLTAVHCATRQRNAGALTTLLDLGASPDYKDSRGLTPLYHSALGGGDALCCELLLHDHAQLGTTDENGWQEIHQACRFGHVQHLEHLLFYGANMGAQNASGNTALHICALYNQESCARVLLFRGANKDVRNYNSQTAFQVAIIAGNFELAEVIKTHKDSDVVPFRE
UniProt P62834: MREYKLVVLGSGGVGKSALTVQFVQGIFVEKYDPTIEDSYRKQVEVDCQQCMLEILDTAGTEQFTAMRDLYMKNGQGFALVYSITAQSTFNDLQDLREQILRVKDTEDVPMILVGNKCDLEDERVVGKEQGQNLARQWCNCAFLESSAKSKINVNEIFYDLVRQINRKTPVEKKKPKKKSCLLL

Assay [1] concerns the target His6/SUMO-tagged SHANK3 SPN-ARR, wild type (rat) (UniProt Q9JLU4). Nature of the assay: pull-down.
For assay [2], the target named is SHANK3 SPN-ARR N52R-mRFP (rat) (UniProt Q9JLU4). Description: co-IP.
Assay [3] has as its target SHANK3 SPN-ARR WT-mRFP (rat) (UniProt Q9JLU4). Nature of the assay: co-IP.

Results are given in words; binding and its absence hold for the method and conditions named. In cells and extracts the contact can be indirect. Some results given as binding are weak or reduced against the parent protein; the word gives no strength.

Take “GFP Rap1 Q63E (constitutively active human Rap1A) (from UniProt P62834 1-184)”: the binding entry in assay [1] is “binds”.
In the case of “GFP SHANK3 SPN domain, wild type (from UniProt Q9JLU4 1-92) (domain or fragment)”, the binding result in assay [2] was “binds”; in assay [3] it was “no binding”.
